Single values are uncertain, as repeats are few or missing.
Compound: [O-][N+](C(C1=C(C(O)=C2)NC(C(C=C3)=CC=C3Cl)C4C1C=CC4)=C2Cl)=O
Test: melting temperature shift (compound 7 minus DMSO); higher = compound stabilises the protein
Conditions: 10 µM
Method: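 Thermal proteome profiling (TMT mass spectrometry) in intact DAOY medulloblastoma cells or DAOY lysates treated with 10 µM compound 7 or DMSO, heated at 10 temperatures from 40.5 to 73.8 °C for 3 min. Melting curves were fitted with the Bioconductor TPP package, and the melting point difference between compound and vehicle is reported per protein (single curve per condition).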

By UniProt entry, the sequences of proteins in these tests, tags left out. Where a name states a change or a piece, a line headed by the entry shows the natural chain unless it says otherwise.
UniProt P56199, whole entry: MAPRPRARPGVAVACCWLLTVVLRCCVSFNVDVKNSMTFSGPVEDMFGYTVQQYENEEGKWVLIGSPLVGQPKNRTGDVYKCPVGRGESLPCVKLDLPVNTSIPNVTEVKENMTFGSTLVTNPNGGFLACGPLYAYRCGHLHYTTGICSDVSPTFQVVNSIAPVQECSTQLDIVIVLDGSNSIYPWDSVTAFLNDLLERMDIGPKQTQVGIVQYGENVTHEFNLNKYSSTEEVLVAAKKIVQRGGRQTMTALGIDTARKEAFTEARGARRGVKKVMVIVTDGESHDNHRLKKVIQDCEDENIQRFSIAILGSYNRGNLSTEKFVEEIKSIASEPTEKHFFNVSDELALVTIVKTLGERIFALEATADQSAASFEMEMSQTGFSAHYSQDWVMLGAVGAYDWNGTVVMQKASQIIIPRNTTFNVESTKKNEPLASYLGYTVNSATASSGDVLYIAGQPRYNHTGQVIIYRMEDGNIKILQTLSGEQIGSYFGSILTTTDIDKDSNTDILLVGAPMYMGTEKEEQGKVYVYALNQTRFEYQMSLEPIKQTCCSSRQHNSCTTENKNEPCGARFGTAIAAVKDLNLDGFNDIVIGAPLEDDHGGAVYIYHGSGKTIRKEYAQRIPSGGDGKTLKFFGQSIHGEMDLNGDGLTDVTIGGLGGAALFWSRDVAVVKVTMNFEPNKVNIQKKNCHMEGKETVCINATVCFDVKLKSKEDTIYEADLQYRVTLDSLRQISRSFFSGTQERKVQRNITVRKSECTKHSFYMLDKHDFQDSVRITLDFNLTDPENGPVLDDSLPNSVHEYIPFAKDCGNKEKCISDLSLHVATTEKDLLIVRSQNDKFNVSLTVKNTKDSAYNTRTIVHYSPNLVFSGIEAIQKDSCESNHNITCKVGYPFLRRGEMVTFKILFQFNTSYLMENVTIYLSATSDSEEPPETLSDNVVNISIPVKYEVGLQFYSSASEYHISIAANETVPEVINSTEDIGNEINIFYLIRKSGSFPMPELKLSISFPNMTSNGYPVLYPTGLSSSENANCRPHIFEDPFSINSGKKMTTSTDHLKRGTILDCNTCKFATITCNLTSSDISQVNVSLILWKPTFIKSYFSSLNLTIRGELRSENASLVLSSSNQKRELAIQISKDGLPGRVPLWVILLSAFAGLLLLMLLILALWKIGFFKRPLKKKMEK
UniProt Q9NVX2: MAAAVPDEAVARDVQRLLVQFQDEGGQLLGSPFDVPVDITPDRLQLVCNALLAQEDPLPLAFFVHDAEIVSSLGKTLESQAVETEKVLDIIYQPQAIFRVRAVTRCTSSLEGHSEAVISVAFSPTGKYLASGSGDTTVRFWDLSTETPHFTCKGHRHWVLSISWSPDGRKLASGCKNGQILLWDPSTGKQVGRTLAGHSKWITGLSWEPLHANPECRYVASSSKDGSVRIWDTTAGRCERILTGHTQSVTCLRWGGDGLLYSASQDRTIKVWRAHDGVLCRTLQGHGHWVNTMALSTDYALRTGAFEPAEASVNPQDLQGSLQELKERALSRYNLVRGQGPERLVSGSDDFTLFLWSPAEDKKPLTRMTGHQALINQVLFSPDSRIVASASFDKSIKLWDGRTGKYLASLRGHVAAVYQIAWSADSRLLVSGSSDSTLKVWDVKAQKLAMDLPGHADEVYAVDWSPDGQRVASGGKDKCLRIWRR
UniProt P52655, whole entry: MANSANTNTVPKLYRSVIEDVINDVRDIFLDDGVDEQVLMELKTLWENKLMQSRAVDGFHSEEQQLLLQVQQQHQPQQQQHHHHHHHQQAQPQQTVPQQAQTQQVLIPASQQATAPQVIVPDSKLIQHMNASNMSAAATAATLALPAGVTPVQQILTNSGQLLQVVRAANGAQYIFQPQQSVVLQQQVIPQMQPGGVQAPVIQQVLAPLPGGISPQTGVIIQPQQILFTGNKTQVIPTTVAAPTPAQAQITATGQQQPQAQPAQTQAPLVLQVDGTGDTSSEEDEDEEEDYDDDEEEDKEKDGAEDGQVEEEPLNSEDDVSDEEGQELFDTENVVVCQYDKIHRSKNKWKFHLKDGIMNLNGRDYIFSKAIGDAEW
UniProt P0CB38: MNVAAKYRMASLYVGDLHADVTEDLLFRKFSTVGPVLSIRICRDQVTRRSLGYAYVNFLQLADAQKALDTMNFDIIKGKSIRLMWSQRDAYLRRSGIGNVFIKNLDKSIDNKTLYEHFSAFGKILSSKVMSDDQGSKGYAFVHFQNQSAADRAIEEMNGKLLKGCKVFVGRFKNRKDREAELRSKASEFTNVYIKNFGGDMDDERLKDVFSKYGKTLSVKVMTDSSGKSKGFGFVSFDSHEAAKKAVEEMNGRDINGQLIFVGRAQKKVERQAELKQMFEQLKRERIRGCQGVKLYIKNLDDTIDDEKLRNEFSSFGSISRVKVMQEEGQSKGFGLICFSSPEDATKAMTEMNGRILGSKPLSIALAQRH
UniProt Q99447: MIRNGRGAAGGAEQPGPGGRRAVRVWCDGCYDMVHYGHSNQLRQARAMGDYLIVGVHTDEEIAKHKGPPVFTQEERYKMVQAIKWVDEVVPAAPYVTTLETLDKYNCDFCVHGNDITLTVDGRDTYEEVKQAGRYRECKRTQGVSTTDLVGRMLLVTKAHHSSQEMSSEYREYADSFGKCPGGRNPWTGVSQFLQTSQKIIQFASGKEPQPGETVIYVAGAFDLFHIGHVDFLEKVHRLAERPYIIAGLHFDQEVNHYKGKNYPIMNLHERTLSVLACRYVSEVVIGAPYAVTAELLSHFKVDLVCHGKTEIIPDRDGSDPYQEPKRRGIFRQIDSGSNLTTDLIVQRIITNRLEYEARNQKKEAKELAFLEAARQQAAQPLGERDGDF
UniProt P56556, whole entry: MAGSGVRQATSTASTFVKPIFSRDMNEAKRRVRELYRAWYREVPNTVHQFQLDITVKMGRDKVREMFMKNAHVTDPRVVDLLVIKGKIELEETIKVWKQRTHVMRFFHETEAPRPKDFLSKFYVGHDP
UniProt Q96G46: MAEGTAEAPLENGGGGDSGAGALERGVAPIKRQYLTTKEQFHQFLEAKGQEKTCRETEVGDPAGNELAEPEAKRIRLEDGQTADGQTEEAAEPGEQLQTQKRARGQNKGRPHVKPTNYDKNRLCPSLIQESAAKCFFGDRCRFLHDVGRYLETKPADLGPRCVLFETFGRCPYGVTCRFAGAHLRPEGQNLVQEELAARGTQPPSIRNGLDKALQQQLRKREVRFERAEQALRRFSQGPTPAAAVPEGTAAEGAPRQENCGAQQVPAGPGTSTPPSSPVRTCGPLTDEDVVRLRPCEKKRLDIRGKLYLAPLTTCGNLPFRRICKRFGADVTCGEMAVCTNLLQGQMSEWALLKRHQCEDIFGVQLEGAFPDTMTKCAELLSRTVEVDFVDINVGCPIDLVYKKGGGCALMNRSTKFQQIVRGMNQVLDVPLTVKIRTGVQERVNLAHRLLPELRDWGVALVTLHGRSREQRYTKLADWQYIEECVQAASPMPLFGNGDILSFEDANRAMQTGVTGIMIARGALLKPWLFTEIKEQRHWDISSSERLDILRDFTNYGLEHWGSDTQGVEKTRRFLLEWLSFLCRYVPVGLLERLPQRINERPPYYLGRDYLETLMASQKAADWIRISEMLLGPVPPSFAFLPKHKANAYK
UniProt Q15269: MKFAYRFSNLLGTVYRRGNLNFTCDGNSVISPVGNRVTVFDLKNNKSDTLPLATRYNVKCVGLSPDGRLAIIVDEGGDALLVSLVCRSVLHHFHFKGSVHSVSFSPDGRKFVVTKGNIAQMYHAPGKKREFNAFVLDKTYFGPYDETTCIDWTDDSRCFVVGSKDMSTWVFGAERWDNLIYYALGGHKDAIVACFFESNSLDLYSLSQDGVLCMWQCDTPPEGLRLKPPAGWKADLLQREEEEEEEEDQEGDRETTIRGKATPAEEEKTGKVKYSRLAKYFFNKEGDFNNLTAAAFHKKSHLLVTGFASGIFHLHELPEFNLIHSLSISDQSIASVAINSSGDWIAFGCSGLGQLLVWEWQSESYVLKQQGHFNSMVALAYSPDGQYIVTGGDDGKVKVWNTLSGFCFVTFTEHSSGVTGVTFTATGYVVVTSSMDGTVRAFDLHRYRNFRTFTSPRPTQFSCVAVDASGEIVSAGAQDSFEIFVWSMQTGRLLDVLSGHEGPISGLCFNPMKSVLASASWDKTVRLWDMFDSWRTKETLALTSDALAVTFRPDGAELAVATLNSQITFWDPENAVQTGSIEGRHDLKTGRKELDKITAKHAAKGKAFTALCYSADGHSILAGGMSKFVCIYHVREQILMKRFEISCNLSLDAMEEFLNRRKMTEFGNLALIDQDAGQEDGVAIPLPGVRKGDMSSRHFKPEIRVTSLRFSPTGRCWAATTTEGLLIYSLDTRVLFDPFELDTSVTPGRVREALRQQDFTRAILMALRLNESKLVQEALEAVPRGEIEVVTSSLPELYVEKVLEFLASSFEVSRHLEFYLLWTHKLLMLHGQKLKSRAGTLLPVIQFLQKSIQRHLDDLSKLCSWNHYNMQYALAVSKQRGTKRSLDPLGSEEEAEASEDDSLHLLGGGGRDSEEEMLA
UniProt P19404, whole entry: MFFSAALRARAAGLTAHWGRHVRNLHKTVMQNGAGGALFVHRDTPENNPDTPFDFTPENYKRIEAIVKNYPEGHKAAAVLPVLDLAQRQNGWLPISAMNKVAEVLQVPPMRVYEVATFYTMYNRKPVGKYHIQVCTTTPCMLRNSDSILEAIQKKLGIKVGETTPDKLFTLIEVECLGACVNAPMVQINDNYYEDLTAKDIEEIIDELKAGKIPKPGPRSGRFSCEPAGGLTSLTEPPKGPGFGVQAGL
UniProt Q8IX90, whole entry: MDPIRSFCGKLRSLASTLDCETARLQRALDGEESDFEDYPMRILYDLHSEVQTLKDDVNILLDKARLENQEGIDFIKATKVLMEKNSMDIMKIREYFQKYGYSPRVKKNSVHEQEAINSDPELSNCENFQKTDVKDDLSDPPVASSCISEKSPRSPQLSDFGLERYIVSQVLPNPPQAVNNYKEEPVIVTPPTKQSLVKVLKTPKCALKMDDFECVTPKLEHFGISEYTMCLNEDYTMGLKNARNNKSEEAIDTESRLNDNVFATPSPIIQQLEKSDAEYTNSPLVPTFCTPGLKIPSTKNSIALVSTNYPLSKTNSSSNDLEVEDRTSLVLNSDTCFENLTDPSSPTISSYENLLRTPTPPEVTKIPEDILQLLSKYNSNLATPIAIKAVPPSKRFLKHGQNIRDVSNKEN
UniProt Q8N954: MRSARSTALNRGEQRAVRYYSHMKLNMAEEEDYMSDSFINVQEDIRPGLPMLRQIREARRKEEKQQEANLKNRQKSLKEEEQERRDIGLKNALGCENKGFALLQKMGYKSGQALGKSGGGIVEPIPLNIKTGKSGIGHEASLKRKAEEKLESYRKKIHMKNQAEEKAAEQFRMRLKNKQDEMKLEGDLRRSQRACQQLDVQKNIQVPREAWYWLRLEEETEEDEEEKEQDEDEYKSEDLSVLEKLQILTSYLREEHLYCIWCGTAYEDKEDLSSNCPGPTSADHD
UniProt Q16667, whole entry: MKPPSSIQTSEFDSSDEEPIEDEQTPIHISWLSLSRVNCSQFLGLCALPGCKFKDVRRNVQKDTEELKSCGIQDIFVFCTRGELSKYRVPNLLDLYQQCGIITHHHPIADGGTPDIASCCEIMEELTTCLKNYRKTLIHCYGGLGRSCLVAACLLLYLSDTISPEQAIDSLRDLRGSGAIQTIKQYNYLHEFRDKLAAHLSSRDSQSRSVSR
UniProt P51571: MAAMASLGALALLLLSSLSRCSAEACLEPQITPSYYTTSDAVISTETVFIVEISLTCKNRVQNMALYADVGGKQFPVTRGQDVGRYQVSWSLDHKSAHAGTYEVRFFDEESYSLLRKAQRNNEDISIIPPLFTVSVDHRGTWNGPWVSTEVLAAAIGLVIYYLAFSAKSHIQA
UniProt Q8NHY2, whole entry: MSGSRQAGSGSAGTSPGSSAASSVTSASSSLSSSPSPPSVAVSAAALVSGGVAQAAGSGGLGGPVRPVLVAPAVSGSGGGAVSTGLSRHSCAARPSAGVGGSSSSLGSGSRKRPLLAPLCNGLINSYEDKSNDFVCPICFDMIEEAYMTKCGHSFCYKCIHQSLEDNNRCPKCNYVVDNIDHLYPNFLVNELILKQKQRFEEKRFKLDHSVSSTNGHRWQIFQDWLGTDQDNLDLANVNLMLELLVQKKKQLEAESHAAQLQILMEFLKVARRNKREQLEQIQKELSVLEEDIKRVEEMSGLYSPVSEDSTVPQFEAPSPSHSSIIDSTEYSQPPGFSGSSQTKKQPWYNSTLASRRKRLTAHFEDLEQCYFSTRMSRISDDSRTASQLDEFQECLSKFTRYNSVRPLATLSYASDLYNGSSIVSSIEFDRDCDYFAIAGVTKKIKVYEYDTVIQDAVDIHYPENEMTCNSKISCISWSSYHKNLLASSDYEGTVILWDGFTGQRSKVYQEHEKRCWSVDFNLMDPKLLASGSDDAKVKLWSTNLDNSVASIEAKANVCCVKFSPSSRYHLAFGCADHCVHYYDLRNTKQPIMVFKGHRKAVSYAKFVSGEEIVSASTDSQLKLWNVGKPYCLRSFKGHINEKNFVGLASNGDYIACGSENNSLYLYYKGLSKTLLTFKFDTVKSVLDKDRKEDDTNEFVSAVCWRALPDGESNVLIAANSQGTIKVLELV

[1] = system: intact DAOY cells, treatment time: 90 min, 37 °C
[2] = system: DAOY cell lysate, treatment time: 20 min, 4 °C

Target | melting temperature shift [1] | melting temperature shift [2]
UniProt Q9UKI9 | -0.964 °C | 
HAT1 (UniProt O14929) | -0.0732 °C | -0.452 °C
TIFA (UniProt Q96CG3) |  | -0.21 °C
UniProt Q86TV6 |  | 0.0663 °C
PIGA (UniProt P37287) | -0.361 °C | 0.485 °C
ACAT1 (UniProt P24752) | -0.511 °C | 0.801 °C
ITGA1 (UniProt P56199) |  | 2.29 °C
THEM6 (UniProt Q8WUY1) | -0.214 °C | 1.41 °C
SMCHD1 (UniProt A6NHR9) | -3.35 °C | -1.01 °C
APOO (UniProt Q9BUR5) | -0.807 °C | 2.26 °C
EML1 (UniProt O00423) | -0.667 °C | -0.383 °C
EPN1 (UniProt Q9Y6I3) | 0.402 °C | -1.1 °C
UniProt P22676 | -0.299 °C | -1.96 °C
GCFC2 (UniProt P16383) | -3.48 °C | -2.78 °C
UniProt Q5XX13 | 7.23 °C | 
DSCC1 (UniProt Q9BVC3) | 0.717 °C | 0.183 °C
SYNJ1 (UniProt O43426) | -0.431 °C | -0.72 °C
GBAS (UniProt O75323) | 0.337 °C | 1.07 °C
LCMT2 (UniProt O60294) | 1.89 °C | -2.16 °C
TRIM56 (UniProt Q9BRZ2) | 0.638 °C | 1.21 °C
UniProt P49703 | 0.19 °C | 

Target | melting temperature shift [1] | melting temperature shift [2]
ANO6 (UniProt Q4KMQ2) | -2.49 °C | 0.858 °C
CDC42EP4 (UniProt Q9H3Q1) | 0.0859 °C | 0.208 °C
UniProt Q96AB3 | -1.46 °C | 0.23 °C
ANLN (UniProt Q9NQW6) | -0.406 °C | -0.0871 °C
UniProt P58335 | 0.561 °C | 
NLE1 (UniProt Q9NVX2) | 4.01 °C | 1.09 °C
GTF2A1 (UniProt P52655) |  | 1.54 °C
CLPTM1L (UniProt Q96KA5) | -0.885 °C | 0.293 °C
BUB1B (UniProt O60566) | -0.64 °C | -0.0481 °C
UniProt P0CB38 | 0.489 °C | 
OGFOD1 (UniProt Q8N543) | -0.204 °C | -0.773 °C
SLC27A4 (UniProt Q6P1M0) | -0.0102 °C | 0.73 °C
UniProt P54707 | -1.12 °C | 
NMNAT1 (UniProt Q9HAN9) |  | -1.67 °C
SOD2 (UniProt P04179) |  | 4.03 °C
PCYT2 (UniProt Q99447) | 0.562 °C | 0.08 °C
MRPL57 (UniProt Q9BQC6) | -1.9 °C | 
NDUFA6 (UniProt P56556) | -1.3 °C | 0.973 °C
MRPL37 (UniProt Q9BZE1) | -0.72 °C | 2.08 °C
WASF1 (UniProt Q92558) |  | -0.67 °C
USP3 (UniProt Q9Y6I4) | -0.708 °C | 0.658 °C

Target | melting temperature shift [1] | melting temperature shift [2]
CTSD (UniProt P07339) | 0.416 °C | 0.437 °C
DUS3L (UniProt Q96G46) | -0.749 °C | 1.01 °C
PWP2 (UniProt Q15269) | 0.431 °C | 
NDUFV2 (UniProt P19404) | 0.0578 °C | 1.46 °C
SKA3 (UniProt Q8IX90) | -0.133 °C | 0.0188 °C
UniProt P05783 | 1.41 °C | 
TPT1 (UniProt P13693) | 0.638 °C | -0.801 °C
RNF2 (UniProt Q99496) | -0.41 °C | -0.531 °C
GYS1 (UniProt P13807) | -0.953 °C | -0.613 °C
UBE2C (UniProt O00762) | -0.115 °C | -1.17 °C
GPATCH11 (UniProt Q8N954) | 0.853 °C | -1.16 °C
CAMSAP1 (UniProt Q5T5Y3) | -1.46 °C | -0.742 °C
NECAP2 (UniProt Q9NVZ3) | -0.833 °C | -2.6 °C
TOP2B (UniProt Q02880) | -0.399 °C | 1.89 °C
UniProt O60551 | 0.691 °C | 0.521 °C
GEMIN6 (UniProt Q8WXD5) | 2.11 °C | -0.375 °C
UniProt P62068 | 0.652 °C | 0.583 °C
UniProt Q16667 |  | -0.893 °C
SSR4 (UniProt P51571) | 0.55 °C | 1.12 °C
ZRANB2 (UniProt O95218) |  | 0.816 °C
UniProt Q8NHY2 |  | -1.4 °C

Target | melting temperature shift [1] | melting temperature shift [2]
PLEKHF1 (UniProt Q96S99) | -1.15 °C | 
ANP32E (UniProt Q9BTT0) | 0.442 °C | 0.967 °C
DNAAF2 (UniProt Q9NVR5) | 0.254 °C | -1.06 °C
HIP1 (UniProt O00291) | -0.719 °C | -0.275 °C
CLTC (UniProt Q00610) | 0.394 °C | 
ABI2 (UniProt Q9NYB9) | 1.24 °C | -0.701 °C
IGF2R (UniProt P11717) | 0.337 °C | 1.35 °C
DCXR (UniProt Q7Z4W1) | -0.39 °C | 0.167 °C
RCCD1 (UniProt A6NED2) | -0.483 °C | 
AIFM1 (UniProt O95831) | -0.983 °C | 1.42 °C
CHMP6 (UniProt Q96FZ7) | -2 °C | 1.47 °C
UniProt Q9P0N9 | -0.802 °C | 1.63 °C
FTSJ1 (UniProt Q9UET6) | -0.157 °C | -0.337 °C
SRP54 (UniProt P61011) | -0.759 °C | -0.24 °C
CD70 (UniProt P32970) | 0.653 °C | 1.46 °C
FOSL2 (UniProt P15408) |  | 2.21 °C
UniProt Q14568 | -0.4 °C | 
POGZ (UniProt Q7Z3K3) | -1.75 °C | 1.43 °C
AVEN (UniProt Q9NQS1) | -1.65 °C | 0.995 °C
UniProt O75352 |  | 1.14 °C
WIPI2 (UniProt Q9Y4P8) | 0.489 °C | -1.74 °C

Given as labelled records: entries from further up.
ACAT1 (UniProt P24752)
  melting temperature shift [1] = -0.511 °C; melting temperature shift [2] = 0.801 °C
USP3 (UniProt Q9Y6I4)
  melting temperature shift [1] = -0.708 °C; melting temperature shift [2] = 0.658 °C
